We go through 39 compounds from PubChem BioAssay.

This is one part of the list. The main result of the screen is listed elsewhere. These columns were measured beside it and carry no call.

The assay in a line: protection against mutant huntingtin cytotoxicity, PC12 cells, LDH release (AID 1610). The following applies: PC12 mutant huntingtin toxicity, final LDH at 4 uM, stronger effect = lower value.
`COc1ccc([C@@H]2CC(=O)c3c(O)cc(O)cc3O2)cc1O`: the normalised LDH release was 0.966.
For `COC(=O)Nc1nc2ccc(Sc3ccccc3)cc2[nH]1`, the normalised LDH release was found to be 1.11.
In the case of `NC[C@H]1O[C@H](O[C@H]2[C@H](O)[C@@H](O[C@H]3O[C@H](CO)[C@@H](O)[C@H](N)[C@H]3O)[C@H](N)C[C@@H]2N)[C@H](O)[C@@H](O)[C@@H]1O` it was 0.938; in that of `C[C@]12CCC(=O)C=C1CCC1C2[C@@H](O)C[C@@]2(C)C1CC[C@]2(O)C(=O)CO` (some centres undefined), 0.808; in that of `CC(C)(C)NCC(O)c1cc(O)cc(O)c1` (centres undefined), 0.591.
The result for `Oc1c(Cl)cc(Cl)c2cccnc12` reads 0.8; that for `COC(=O)C1[C@H]2C[C@H]3c4[nH]c5ccccc5c4CCN3C[C@@H]2CC[C@@H]1O` (some centres undefined), 0.915; that for `CC(=O)N[C@@H](Cc1c[nH]c2ccccc12)C(N)=O`, 0.616.
In the case of `CCCSc1ccc2nc(NC(=O)OC)[nH]c2c1` it was 1.11; in that of `CC12CCC(CC1)C(C)(C)O2`, 0.533.
`CCOC(=O)OC(C)OC(=O)C1N2C(=O)C(NC(=O)[C@H](N)c3ccccc3)C2SC1(C)C` (some centres undefined) showed a normalised LDH release of 0.375.
The result for `O=C(COc1ccc(Cl)cc1)N1CCN(Cc2ccc3c(c2)OCO3)CC1` reads 0.85.
In the case of `Nc1ccn(C2O[C@H](CO)[C@@H](O)[C@@H]2O)c(=O)n1` (some centres undefined) it was 0.413; in that of `Cn1c(=O)c2[nH]c(C3CCCC3)nc2n(C)c1=O`, 1.08; in that of `CCN(CC)CCNC(=O)c1ccc(N)cc1`, 0.973.
The result for `CN(C)CCN(Cc1cccs1)c1ccccn1` reads 1.22; that for `CC(Oc1ccccc1)C(=O)N[C@@H]1C(=O)N2[C@@H]1SC(C)(C)[C@@H]2C(=O)O` (some centres undefined), 0.372.
Compound `Cc1c(NC(=O)c2cccnc2)c(=O)n(-c2ccccc2)n1C` had a normalised LDH release of 0.839.
In the case of `NC(N)=N/N=C\c1c(Cl)cccc1Cl` it was 1.17; in that of `COc1ccc(-c2cc(=O)c3c(O)cc(O[C@@H]4O[C@H](CO[C@H]5O[C@H](C)[C@@H](O)[C@H](O)[C@@H]5O)[C@@H](O)[C@H](O)[C@H]4O)cc3o2)cc1O`, 0.887; in that of `CC(=O)NS(=O)(=O)c1ccc(N)cc1`, 1.16.
The compound `CC(=C(CCOP(=O)(O)O)SC(=O)c1ccccc1)N(C=O)Cc1cnc(C)nc1N` showed a normalised LDH release of 1.11.
`COc1cnc(NS(=O)(=O)c2ccc(N)cc2)nc1` registered a normalised LDH release of 0.883.
The result for `CCN1CCN(C(=O)NC(C(=O)NC2C(=O)N3C(C(=O)O)=C(CSc4nnnn4C)CSC23)c2ccc(O)cc2)C(=O)C1=O` (centres undefined) reads 0.638; that for `CN/C(=C\[N+](=O)[O-])NCCSCc1ccc(CN(C)C)o1`, 0.742; that for `CC(C(=O)O)c1cccc(Oc2ccccc2)c1` (centres undefined), 0.855.
In the case of `CC(COc1ccccc1)NC(C)[C@H](O)c1ccc(O)cc1` (some centres undefined) it was 0.877; in that of `CC1=C2C(=CO[C@H](C)[C@H]2C)C(=O)C(C(=O)O)=C1O`, 1.
The result for `COc1ccc([C@@H]2CC(=O)c3c(O)cc(O[C@@H]4O[C@H](CO[C@H]5O[C@@H](C)[C@H](O)[C@@H](O)[C@H]5O)[C@@H](O)[C@H](O)[C@H]4O)cc3O2)cc1O` reads 0.8; that for `CCOC(=O)[C@H](CCc1ccccc1)N[C@@H](C)C(=O)N1CCC[C@H]1C(=O)O`, 0.791; that for `Clc1cccc(Cl)c1NC1=NCCN1`, 0.697.
For the compound `COc1ccccc1OCC(O)COC(N)=O` (centres undefined), the normalised LDH release is 0.94.
The result for `CC1=C(/C=C/C(C)=C/C=C/C(C)=C/CO)C(C)(C)CCC1` reads 1.2; that for `CC(C(=O)O)c1ccc(-c2ccccc2)c(F)c1` (centres undefined), 1.02; that for `O=C(O)CCCCC1CCSS1` (centres undefined), 1.29.
In the case of `Cn1c(=O)c2c(ncn2CC(O)CO)n(C)c1=O` (centres undefined) it was 0.948.
Compound `Cc1ccc(Cl)c(Nc2ccccc2C(=O)O)c1Cl` showed a normalised LDH release of 1.13.
In the case of `CC(CNC(=O)c1ccccc1)C(=O)OCC(=O)[C@@]12OC(C)(C)O[C@@H]1CC1C3CCC4=CC(=O)C=C[C@]4(C)[C@@]3(F)[C@@H](O)C[C@@]12C` (some centres undefined) it was 0.356; in that of `C=C(C)[C@H]1CC=C(C(=O)O)CC1`, 0.791.
